Inconclusive results, whose numbers are uncertain, are shown with a selection of clear calls. Potencies beside an inconclusive call are fits to weak or partial responses and may not hold up. Calls of active or inactive are those of the source. Calls follow the shape of the dose curve; as a rule, active = well fitted curve in the direction sought with a large enough effect; inconclusive = small, poorly fitted or top-dose-only effect, or another doubt; inactive = no such curve, though single readings can be large; an effect the other way counts as inactive or inconclusive.
Tests used:
[1] = target: Rap guanine nucleotide exchange factor 4 (Homo sapiens) (UniProt Q8WZA2); assay: Confirmatory qHTS for antagonist of cAMP-regulated guanine nucleotide exchange factor 4 (EPAC2) (AID 1645885); details: EPAC2 Rap1B-BODIPY-GDP exchange fluorescence, biochemical; activity change, negative = inhibition: at 12.7 µM (top of the series) unless noted; series mostly up to 114 µM; also: nearly all actives have a fitted effect of over 25% in size; as to activity change, negative = inhibition: % is scaled to controls: 0 for no effect and ±100 for the full control effect
[2] = target: Rap guanine nucleotide exchange factor 3 (Homo sapiens) (UniProt O95398); assay: Counterscreen qHTS for agonist of cAMP-regulated guanine nucleotide exchange factor 3 (EPAC1) (AID 1645889); details: EPAC1 Rap1B-BODIPY-GDP exchange, fluorescence; activation: at 154 µM (top of the series) unless noted; also: nearly all actives have a fitted effect of over 40% in size; as to activation: % of control where 0% means no effect
How it was run: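 Measured: fluorescence of BODIPY-GDP bound to Rap1B, which falls as exchange proceeds. Conditions include 50 uM competing GDP, 5 and 30 min reads, and a later cAMP challenge for antagonist detection.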
Potency is read from the fitted curve at half-maximal effect.

Chains of the proteins cited; added tags and fusions are not shown. Lines headed by an entry give the natural chain unless they say otherwise; changes in a name come on top.
UniProt Q8WZA2: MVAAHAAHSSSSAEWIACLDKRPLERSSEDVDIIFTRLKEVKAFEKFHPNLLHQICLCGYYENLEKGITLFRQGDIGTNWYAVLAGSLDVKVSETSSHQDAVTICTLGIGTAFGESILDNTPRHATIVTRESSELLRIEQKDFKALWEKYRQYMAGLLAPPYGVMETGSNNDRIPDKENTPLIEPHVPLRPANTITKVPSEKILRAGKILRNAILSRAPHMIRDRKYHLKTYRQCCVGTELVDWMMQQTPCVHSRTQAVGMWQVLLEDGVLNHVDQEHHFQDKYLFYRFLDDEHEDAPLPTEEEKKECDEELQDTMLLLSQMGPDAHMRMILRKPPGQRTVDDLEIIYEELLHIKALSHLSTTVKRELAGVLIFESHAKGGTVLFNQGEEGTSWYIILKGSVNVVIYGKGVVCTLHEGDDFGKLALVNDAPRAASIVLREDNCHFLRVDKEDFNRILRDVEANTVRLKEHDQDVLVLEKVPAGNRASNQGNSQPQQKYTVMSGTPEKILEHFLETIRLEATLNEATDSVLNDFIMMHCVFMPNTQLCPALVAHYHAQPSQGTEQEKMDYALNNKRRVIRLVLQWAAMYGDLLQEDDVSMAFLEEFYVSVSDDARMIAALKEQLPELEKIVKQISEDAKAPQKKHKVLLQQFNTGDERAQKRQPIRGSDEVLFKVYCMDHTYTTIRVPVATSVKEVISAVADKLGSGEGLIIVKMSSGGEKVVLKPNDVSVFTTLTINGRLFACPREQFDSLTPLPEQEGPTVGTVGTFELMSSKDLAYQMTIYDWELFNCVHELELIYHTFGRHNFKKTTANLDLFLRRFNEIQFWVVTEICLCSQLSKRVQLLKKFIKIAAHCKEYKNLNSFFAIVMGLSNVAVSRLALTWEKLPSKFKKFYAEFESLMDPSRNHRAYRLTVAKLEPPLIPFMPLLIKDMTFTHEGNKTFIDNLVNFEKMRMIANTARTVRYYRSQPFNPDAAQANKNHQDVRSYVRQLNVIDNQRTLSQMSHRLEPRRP

Compound	Potency [1]	Potency [2]	activation [2]
C=CCc1c(C)c(C#N)c2nc3ccccc3n2c1N1CCCCC1	inactive	inactive	
CC(=O)N1CCc2c(sc(NC(=O)CS(=O)(=O)c3ccc(F)cc3)c2C(N)=O)C1	inconclusive: 8.49 µM [inhibitor, full curve, poor fit]	inconclusive: 0.0112 µM [activator, full curve, poor fit]	
C/C(=N\N1C(=O)c2ccccc2NC1c1ccco1)c1ccccc1O (stereo not drawn)	inactive	inconclusive: 15.8 µM [activator, partial curve, poor fit]	
O=C1C(O)=CC(=C(c2ccccc2)c2ccccc2)c2ccccc21	inconclusive: 16.9 µM [inhibitor, partial curve, poor fit]		inconclusive: 72.5% [activator]
COC(=O)c1cc(Br)c(=O)n(CCC2=CCCCC2)c1	inconclusive: 1.35 µM [inhibitor, partial curve, poor fit]		inconclusive: 50.7% [activator] [at 30.8 µM]
CSc1nc(C)cc(C)c1S(=O)(=O)c1ccccc1C	inconclusive: 2.69 µM [inhibitor, partial curve]	inconclusive: 1.12 µM [activator, full curve, poor fit]	
Cc1cccc(Nc2c([N+](=O)[O-])c(=O)oc3ccccc23)c1	inactive		inconclusive: 31.2% [activator]
COc1ccccc1CN(C)CC(=O)Nc1ccccc1-c1ccccc1	inconclusive: 30.1 µM [inhibitor, full curve]	inconclusive: 12.6 µM [activator, full curve, poor fit]	
COCCn1c(SCC(=O)Nc2ccc3c(c2)CCC3)nc2ccccc2c1=O	inactive	inconclusive: 12.6 µM [activator, single point]	
COCCN(CCOC)Cc1cc(=O)oc2cc(C)c(Cl)cc12	inconclusive: 42.6 µM [inhibitor, partial curve]	inactive	
Cc1ccc(-c2cc([C@H]3[C@@H]4C=CCC[C@@]4(C)C(=O)N3Cc3ccccc3)ccc2F)cc1	inactive	inconclusive: 0.01 µM [activator, partial curve, poor fit]	
Cc1ccc2nc(NC(=O)CSc3ncnc4c3oc3ccccc34)sc2c1	inactive	inactive	
Cc1cnc(C(=O)OCC(=O)Nc2ccc(Oc3ccccc3)cc2)cn1	inconclusive: 0.675 µM [inhibitor, full curve, poor fit]	inconclusive: 11.2 µM [activator, partial curve, poor fit]	
COc1ccc(NC(=O)c2ccc3c(SCC(=O)O)c4c(nc3c2)CCCC4)c(OC)c1	inactive		inconclusive: 54.7% [activator]
O=C(Cn1cnc2c(nnn2Cc2ccccc2)c1=O)N1CCN(c2ccccc2)CC1	inconclusive: 95.3 µM [inhibitor, partial curve, poor fit]	inconclusive: 0.01 µM [activator, partial curve, poor fit]	
COc1ccc(OC)c(/C=C/c2ccnc3ccccc23)c1	inconclusive: 5.36 µM [inhibitor, partial curve, poor fit]		inactive: 14.1% [at 30.8 µM]
COC(=O)/N=C(/Cc1ccc(OC)cc1)c1ccc(OC)cc1	inconclusive: 19 µM [inhibitor, full curve]	inactive	
C/C(C/C(C)=C1/SC(=S)NC1=O)=C1\SC(=S)NC1=O	active: 21.3 µM	inconclusive: 0.0022 µM [activator, full curve, poor fit]	
CCCS(=O)(=O)N1CCC(C(=O)NCCN2CCCC2)CC1	inactive		inactive: 25.6% [at 30.8 µM]

Looked up above:
`C/C(=N\N1C(=O)c2ccccc2NC1c1ccco1)c1ccccc1O` (stereo not drawn) | Potency [1]: inactive
`Cc1cccc(Nc2c([N+](=O)[O-])c(=O)oc3ccccc23)c1` | activation [2]: inconclusive: 31.2% [activator]

From PubChem BioAssay (NCATS)
